US20180369203A1, “METHODS OF TREATING CANCER BY ADMINISTERING A MEK INHIBITOR IN COMBINATION WITH A PROTEASOME INHIBITOR” (The Jackson Laboratory, priority 2015, published 2018)
At least one structure is not confirmed: it was looked up by name or label, or the drawing left a doubt.

Columns and labels:
[1] = system: WM115 cells; assay: Lys48 ubiquitin immunostaining of aggregates in melanoma cells; assay type: cell-based, human; conditions: 20 nM AZD6244, 100 nM Bortezomib, or both, 24 hr
Method: (§1) FIGS. 5A-Y show MEK and proteasome inhibition provoke protein aggregation and amyloidogenesis. (A-B) WM115 cells treated with 20 nM AZD6244, 100 nM Bortezomib, or both for 24 hr were stained with Lys48-specific ubiquitin antibodies. Arrowheads mark ubiquitin-positive aggregates. Scale bar: 10 μm. Amounts of aggregates per cell were quantitated using ImageJ (median, n≥100, ANOVA). (C-F) Following transfection with polyQ79 plasmids alone or with both polyQ79 and HSF1^S326D plasmids for one day, HEK293T cells were treated with inhibitors as described in (A-B). Cells were either analyzed for aggregate size or stained with 10 μM ThT. (G) Treated tumor cell lines were stained with 10 μM ThT. Geometric means were used to calculate fold changes in ThT fluorescence intensity and the log 2(FC) values were presented as a heat map. (H) HEK293T cells were transfected with LacZ or polyQ79 plasmid. Following treatments, AOs were quantitated by ELISA using A11 antibodies (mean±SD, n=3, ANOVA). (I) Intrinsic AOs were detected in human tumor cell lines (mean±SD, n=3, ANOVA). […] Amyloids were quantitated by ELISA (mean±SD, n=3, Student's t-test). […] AF formation was monitored by ThT binding (mean±SD, n=3, ANOVA). […] Amyloids were quantitated (mean±SD, n=3, Student's t-test). […] Viable cells were quantitated by CellTiter® blue (mean±SD, n=6, Student's t-test). […] Viable cells were quantitated (mean±SD, n=6, ANOVA). […]

[2] = system: polyQ79-expressing cells; assay: ThT and CR staining of polyQ79-expressing cells (flow cytometry); assay type: cell-based; conditions: HEK293T; 20 nM AZD6244, 100 nM Bortezomib, or both
Method: as §1

## Cn1cnc2c(F)c(Nc3ccc(Br)cc3Cl)c(C(=O)NOCCO)cc21 [AZD6244, selumetinib]
[1]
  ubiquitin-containing aggregates (punctate foci): albeit to a lesser extent, induced punctate foci
[2]
  ThT and CR staining of polyQ79-expressing cells: further intensified
